{
  "source": "paper PMC3814616",
  "about": "“BRAF inhibitors suppress apoptosis through off-target inhibition of JNK signaling” (eLife, 2013)",
  "key": {"[1]": {"system": "E1A and HRAS^G12V-transformed wild-type (WT) MEFs", "test": "Soft agar colony formation", "type": "cell-based, mouse"}, "[2]": {"system": "HRAS^G12V-transformed HaCaT cells (SCR, TKD)", "test": "Soft agar colony formation", "type": "cell-based, human"}, "[3]": {"settings": "MEF and HaCaT experiments combined"}},
  "data": [
    {"smiles": "CCCS(=O)(=O)Nc1ccc(F)c(C(=O)c2c[nH]c3ncc(Cl)cc23)c1F", "note": "[PLX4720]", "values": [
      {"measurement": "effect of paradoxical ERK activation, share of total colony growth advantage", "setting": "[1]; 1.0 μM, WT vs Craf−/− MEFs", "result": 60, "unit": "%"},
      {"measurement": "contribution of paradoxical ERK activation to total effects on tumor growth", "setting": "[1]; [3]", "result": "60–82.4%"},
      {"measurement": "effect of JNK pathway inhibition, share of total colony formation advantage", "setting": "[2]; 1.0 μM, TKD vs SCR HaCaT", "result": 17.6, "unit": "%"},
      {"measurement": "contribution of JNK inhibition to total effect of accelerated colony formation", "setting": "[2]; [3]", "result": "17.6–40%"}
    ]}
  ]
}
